Results are given in words; binding and its absence hold for the method and conditions named. Binding seen in cells or lysates may run through a third protein. Some entries that bind do so weakly or less than the wild type. For some of these results: Tags and fused reporters may be left off the sequences shown.
T1: Ectopically expressed RECK (Ad.RECK, adenoviral vector expressing human RECK cDNA under the CMV promoter) (human) (UniProt O95980)
T1 sequence: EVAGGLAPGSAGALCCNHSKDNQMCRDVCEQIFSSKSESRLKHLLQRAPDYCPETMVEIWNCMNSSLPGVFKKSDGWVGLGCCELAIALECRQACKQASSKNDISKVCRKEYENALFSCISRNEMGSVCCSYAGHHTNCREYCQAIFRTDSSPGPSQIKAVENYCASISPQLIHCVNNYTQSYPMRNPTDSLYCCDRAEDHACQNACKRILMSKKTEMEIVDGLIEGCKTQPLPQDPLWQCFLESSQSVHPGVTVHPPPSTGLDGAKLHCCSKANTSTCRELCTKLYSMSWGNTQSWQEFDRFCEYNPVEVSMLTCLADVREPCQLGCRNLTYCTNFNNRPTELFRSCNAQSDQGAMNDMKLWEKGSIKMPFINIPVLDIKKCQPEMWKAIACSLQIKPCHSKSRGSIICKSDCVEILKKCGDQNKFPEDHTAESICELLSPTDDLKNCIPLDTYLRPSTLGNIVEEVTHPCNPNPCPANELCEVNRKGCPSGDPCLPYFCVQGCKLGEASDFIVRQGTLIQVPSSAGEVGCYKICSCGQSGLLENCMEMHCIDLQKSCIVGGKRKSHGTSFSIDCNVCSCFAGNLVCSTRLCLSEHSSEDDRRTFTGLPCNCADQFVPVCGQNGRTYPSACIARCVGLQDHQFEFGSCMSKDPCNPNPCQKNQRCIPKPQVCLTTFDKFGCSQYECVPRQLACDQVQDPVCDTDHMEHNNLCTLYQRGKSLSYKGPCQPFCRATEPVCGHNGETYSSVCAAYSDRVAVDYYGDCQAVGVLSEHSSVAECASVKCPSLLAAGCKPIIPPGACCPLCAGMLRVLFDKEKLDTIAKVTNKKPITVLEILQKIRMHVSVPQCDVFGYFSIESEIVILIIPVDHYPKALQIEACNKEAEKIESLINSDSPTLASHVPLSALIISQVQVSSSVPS

By UniProt entry, the sequences of proteins in these tests, tags left out. Residues count along the entry.
UniProt P40189, residues 23-918: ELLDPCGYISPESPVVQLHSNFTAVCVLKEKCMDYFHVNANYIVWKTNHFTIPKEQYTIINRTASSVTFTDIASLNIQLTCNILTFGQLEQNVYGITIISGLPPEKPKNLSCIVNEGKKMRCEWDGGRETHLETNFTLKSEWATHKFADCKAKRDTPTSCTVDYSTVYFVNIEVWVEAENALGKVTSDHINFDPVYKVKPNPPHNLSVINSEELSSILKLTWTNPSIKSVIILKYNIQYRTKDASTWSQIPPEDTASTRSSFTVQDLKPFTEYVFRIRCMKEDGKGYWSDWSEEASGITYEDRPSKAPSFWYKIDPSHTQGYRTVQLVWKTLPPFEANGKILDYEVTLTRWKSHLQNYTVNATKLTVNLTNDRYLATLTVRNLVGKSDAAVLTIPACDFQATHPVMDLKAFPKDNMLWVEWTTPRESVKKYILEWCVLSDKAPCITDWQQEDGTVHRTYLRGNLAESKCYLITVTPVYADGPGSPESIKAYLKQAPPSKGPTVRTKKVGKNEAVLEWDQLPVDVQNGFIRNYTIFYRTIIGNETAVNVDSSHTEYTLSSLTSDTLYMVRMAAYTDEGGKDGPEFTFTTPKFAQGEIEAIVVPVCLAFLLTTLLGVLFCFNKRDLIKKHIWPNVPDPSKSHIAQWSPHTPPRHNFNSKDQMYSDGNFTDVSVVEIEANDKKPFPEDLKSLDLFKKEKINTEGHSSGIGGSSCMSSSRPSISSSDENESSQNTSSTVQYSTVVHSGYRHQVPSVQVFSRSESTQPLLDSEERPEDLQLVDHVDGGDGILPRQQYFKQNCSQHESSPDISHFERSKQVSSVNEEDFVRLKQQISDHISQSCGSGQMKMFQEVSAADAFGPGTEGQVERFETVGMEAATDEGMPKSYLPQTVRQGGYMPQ

T2: Reversion-inducing cysteine-rich protein with Kazal motifs (RECK), endogenous in human aortic SMC (human (endogenous in primary human aortic SMC)) (UniProt O95980)
T2 sequence: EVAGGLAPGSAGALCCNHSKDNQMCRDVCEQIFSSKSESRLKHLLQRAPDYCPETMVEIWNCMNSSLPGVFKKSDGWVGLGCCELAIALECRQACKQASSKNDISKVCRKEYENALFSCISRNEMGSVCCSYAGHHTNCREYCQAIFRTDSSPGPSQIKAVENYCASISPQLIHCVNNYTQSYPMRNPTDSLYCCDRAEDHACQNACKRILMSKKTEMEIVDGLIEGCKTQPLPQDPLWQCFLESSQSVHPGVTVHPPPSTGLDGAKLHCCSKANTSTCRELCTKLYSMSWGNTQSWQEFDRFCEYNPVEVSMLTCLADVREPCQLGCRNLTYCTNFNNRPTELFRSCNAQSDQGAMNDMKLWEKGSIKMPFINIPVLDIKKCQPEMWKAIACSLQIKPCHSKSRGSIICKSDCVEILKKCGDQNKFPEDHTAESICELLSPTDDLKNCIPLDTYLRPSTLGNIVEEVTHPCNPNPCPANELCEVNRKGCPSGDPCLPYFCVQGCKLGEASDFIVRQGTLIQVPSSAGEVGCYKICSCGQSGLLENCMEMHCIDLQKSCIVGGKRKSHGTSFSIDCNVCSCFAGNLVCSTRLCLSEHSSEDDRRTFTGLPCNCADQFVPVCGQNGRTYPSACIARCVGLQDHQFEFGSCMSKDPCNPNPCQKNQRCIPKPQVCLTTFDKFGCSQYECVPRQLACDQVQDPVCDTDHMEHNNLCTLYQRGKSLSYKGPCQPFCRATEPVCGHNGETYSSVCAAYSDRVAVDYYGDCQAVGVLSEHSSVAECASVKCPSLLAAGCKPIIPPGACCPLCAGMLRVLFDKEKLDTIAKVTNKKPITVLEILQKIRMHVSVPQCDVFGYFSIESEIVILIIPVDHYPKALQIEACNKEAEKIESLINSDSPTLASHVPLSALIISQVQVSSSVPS


Tests used:
[1] = molecular target: T1, Ectopically expressed RECK (Ad.RECK, adenoviral vector expressing human RECK cDNA under the CMV promoter) (human); test: co-IP; whole cell extracts of primary human aortic SMC incubated with anti-RECK antibodies immobilized on agarose beads; washed three times in 50 mM Tris-Cl, 150 mM NaCl, 0.1% Nonidet P-40; eluted by boiling in SDS sample buffer; IB with LIFR or gp130 antibodies; cells at basal conditions, exposed to CT-1 (15 min), or transduced with Ad.RECK or Ad.GFP
[2] = molecular target: T2, Reversion-inducing cysteine-rich protein with Kazal motifs (RECK), endogenous in human aortic SMC (human (endogenous in primary human aortic SMC)); test: as above

binding [1]	binding [2]	Molecule
binds	binds	Glycoprotein 130 (gp130; interleukin 6 cytokine family signal transducer/IL6ST), endogenous in human aortic SMC (from UniProt P40189 23-918) (receptor)
binds	binds	Leukemia inhibitory factor receptor (LIFR), endogenous in human aortic SMC (receptor, UniProt P42702 45-1097) QKKGAPHDLKCVTNNLQVWNCSWKAPSGTGRGTDYEVCIENRSRSCYQLEKTSIKIPALSHGDYEITINSLHDFGSSTSKFTLNEQNVSLIPDTPEILNLSADFSTSTLYLKWNDRGSVFPHRSNVIWEIKVLRKESMELVKLVTHNTTLNGKDTLHHWSWASDMPLECAIHFVEIRCYIDNLHFSGLEEWSDWSPVKNISWIPDSQTKVFPQDKVILVGSDITFCCVSQEKVLSALIGHTNCPLIHLDGENVAIKIRNISVSASSGTNVVFTTEDNIFGTVIFAGYPPDTPQQLNCETHDLKEIICSWNPGRVTALVGPRATSYTLVESFSGKYVRLKRAEAPTNESYQLLFQMLPNQEIYNFTLNAHNPLGRSQSTILVNITEKVYPHTPTSFKVKDINSTAVKLSWHLPGNFAKINFLCEIEIKKSNSVQEQRNVTIKGVENSSYLVALDKLNPYTLYTFRIRCSTETFWKWSKWSNKKQHLTTEASPSKGPDTWREWSSDGKNLIIYWKPLPINEANGKILSYNVSCSSDEETQSLSEIPDPQHKAEIRLDKNDYIISVVAKNSVGSSPPSKIASMEIPNDDLKIEQVVGMGKGILLTWHYDPNMTCDYVIKWCNSSRSEPCLMDWRKVPSNSTETVIESDEFRPGIRYNFFLYGCRNQGYQLLRSMIGYIEELAPIVAPNFTVEDTSADSILVKWEDIPVEELRGFLRGYLFYFGKGERDTSKMRVLESGRSDIKVKNITDISQKTLRIADLQGKTSYHLVLRAYTDGGVGPEKSMYVVTKENSVGLIIAILIPVAVAVIVGVVTSILCYRKREWIKETFYPDIPNPENCKALQFQKSVCEGSSALKTLEMNPCTPNNVEVLETRSAFPKIEDTEIISPVAERPEDRSDAEPENHVVVSYCPPIIEEEIPNPAADEAGGTAQVIYIDVQSMYQPQAKPEEEQENDPVGGAGYKPQMHLPINSTVEDIAAEEDLDKTAGYRPQANVNTWNLVSPDSPRSIDSNSEIVSFGSPCSINSRQFLIPPKDEDSPKSNGGGWSFTNFFQNKPND

— article PMC10567511
